The source of these data is patent US20150174186A1, “PHARMACEUTICAL COMPOSITION FOR PREVENTING OR TREATING STAT3-MEDIATED DISEASE, COMPRISING SALVIA PLEBEIA R. BR. EXTRACT OR FRACTION THEREOF AS ACTIVE INGREDIENT” (Korea Research Institute of Bioscience and Biotechnology, priority 2012, published 2015).

The subject of data set [1] is mouse model with osteoporosis induced by ovariectomy. The data set is described as follows: Mouse model with osteoporosis induced by ovariectomy (DEXA, micro CT). It counts as in vivo, C57BL/6 mouse. The conditions noted are these: compared to PBS after ovariectomy, oral, five weeks. Here is the method: Test groups were divided into a sham group (only surgery without ovary removal) and a group treated with ovariectomy (OVX). In the OVX group, the ovaries of an eight-week old female C57BL/6 mouse were removed by surgery and the mouse was bred for 6 weeks to induce osteoporosis. Then, the mouse was orally administered with PBS, alendronate (3 mg/kg), or ethanol extract of Salvia plebeia R. Br. (100 mg/kg, 300 mg/kg or 500 mg/kg) for five weeks. The sample was used after dissolving in PBS. Furthermore, the sham group was orally administered with PBS for five weeks.
Upon termination of five weeks' oral administration, the Bone Mineral Density (BMD) and Bone Mineral Content (BMC) of the mouse were measured using an osteoporosis analyzing device Dual-Energy X-ray Absorptiometry (DEXA; bone mineral density analyzer), and the results are shown in FIG. 21a-21d.
Upon termination of five weeks' oral administration, the mice of each experimental group were sacrificed, and the bones adjacent to tibia were separated. The bones were then photographed to obtain their 3-dimensional structures and cross-sections via micro CT, and the microstructures and volume of the bones and trabecular thickness were measured. […] Additionally, the therapeutic effect was determined based on the trabecular separation and the trabecular number.

In data set [2] the test system is osteoclasts. The data set is described as follows: Differentiation and formation of osteoclasts from bone marrow macrophages (TRAP assay). It counts as cell-based, ICR mouse. Conditions: 30 and 60 μM. The source says:
Osteoclasts are known to directly affect bone resorption, and the differentiation and formation of osteoclasts play a very important role in osteoporosis. In order to examine the effect of the ethanol extract of Salvia plebeia R. Br. on the differentiation and formation of osteoclasts, the differentiation from bone marrow cells isolated from the femur of an ICR mouse into osteoclasts was observed.
Bone marrow cells were separated from the femur of a three- to six-week old ICR mouse, and the separated cells were treated with M-CSF (30 ng/ml) for 3 days, thereby inducing their differentiation into bone marrow macrophage (BMM). Then, the BMM was treated with M-CSF (30 ng/ml) and RANKL (100 ng/ml) for 4 days, thereby inducing them to be differentiated into osteoclasts. In order to examine the efficacies of the ethanol extract of Salvia plebeia R. Br., the BMM cells, which had not been differentiated into osteoclasts, were treated with the Salvia plebeia R. Br. extract at concentrations of 10, 30, and 60 μg/ml, followed by treatment with M-CSF and RANKL for 4 days. Then, the differentiation and formation of osteoclasts were confirmed by TRAP assay.

For `NCCCC(O)(P(=O)(O)O)P(=O)(O)O` [alendronate], the “Bone Mineral Density (BMD)” value in data set [1] is listed as “significant increase”. Further, the “toxicity to BMM cells” value in data set [2] is recorded as “serious toxicity was observed”.
